# Patent US11054413B2, “Materials and methods for assaying living cells” (UNIVERSITY OF MARYLAND, COLLEGE PARK, priority 2014, dated 2021)
# At least one compound was matched to its structure with a doubt left.
# System: Patient-derived cells
# Test: McTN and stem cell responses of patient-derived cells to drugs (Table 2, predicted)
# Type: cell-based, human
# Settings: 30 minutes at the concentration given
# Description: Patient-derived cells are treated with either vehicle (0.1% DMSO) or each of the drugs in Table 2 at the indicated concentration for 30 minutes and then analyzed for McTN incidence.
compound,measurement,value
Cc1nc(Nc2ncc(C(=O)Nc3c(C)cccc3Cl)s2)cc(N2CCN(CCO)CC2)n1 [Dasatinib],Predicted stemness & McTN effect,Increase
